The nature of this experiment: IkB Signaling. The settings on record: ABC-DLBCL IkBa-CBG/CBR dual luciferase ratio (green luciferase fused to IkBa over red control in OCI-Ly3 lymphoma cells), 4 h. The essentials:
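Luminescence ratio of IκBα-fused green versus native red beetle luciferase in OCI-Ly3 cells, 4 h post-doxycycline with compound; red signal alone, scaled from basal (0%) to zero light (-100%), flagged nonspecific or cytotoxic effects.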

Setting [1] is: measured here: control luc red channel unless noted.

The other results are listed elsewhere or left out. These are further read-outs of the screen, such as a control signal, another cell line or another target. No call is given for them. Most of these compounds were active or inconclusive in the main read-out, so they are no random draw. The note in brackets gives the kind of curve behind each potency; many fits are weak.

Regarding `O=C(CN(C(=O)CSc1nnc(COc2ccccc2)o1)c1ccc(F)cc1)NC1CCCCC1`, the AC50 under setting [1] was 7.94 µM [falling, partial curve].

On to `O=C1C(Nc2ccccc2)=CC(c2ccc(Br)cc2)N1c1ccccc1` (centres undefined), for which the AC50 under setting [1] was 1.58 µM [falling, full curve].

For `Oc1oc(-c2ccco2)nc1C=Nc1ccccc1`, under setting [1], the AC50 was 12.6 µM [falling, partial curve].

Take `COc1ccc(CCNC(=O)C(=O)Nc2ccc(C)cc2)cc1OC`: the AC50 under setting [1] is 20 µM [rising, single point].

Turning to `C=CCSc1nc2c(c(=O)[nH]1)C(C(C)C)C(C#N)=C(N)O2` (centres undefined), under setting [1], the AC50 was 20 µM [rising, partial curve].

For `O=S(=O)(NC1CC1)c1ccc(S(=O)(=O)N2CCCc3ccccc32)cc1`, under setting [1], the AC50 was 39.8 µM [falling, single point].

For `COc1cc(-c2cccs2)cc(=O)c2c(C)oc(C)c12`, the AC50 under setting [1] is 25.1 µM [falling, partial curve].

Take `CC(C)(C)c1ccc(C(=O)Nc2cc(-c3nc4ccccc4o3)ccc2Cl)cc1`: under setting [1], the AC50 is 10 µM [falling, partial curve].

`CCCCn1c(=O)c2oc3ccccc3c2n(CC(=O)Nc2cccc(Cl)c2C)c1=O`: under setting [1], the concentration at half-maximal activity (AC50) was 3.98 µM [rising, partial curve].

Consider `COc1ccc(CC(=O)Nc2cc(Cl)ccc2O)cc1`, for which, under setting [1], the AC50 is 20 µM [falling, partial curve].

As to `COc1ccc(Cc2nc3ccc(C(=O)NCc4ccc(OC)cc4OC)cc3o2)cc1`, under setting [1], the AC50 was 12.6 µM [falling, partial curve].

For `CCOC(=O)Cn1c(=O)oc2cc(S(=O)(=O)N3CCCC(C(=O)OCC)C3)ccc21` (centres undefined), the AC50 under setting [1] is 10 µM [falling, partial curve].

As for `Cc1ccc(Cn2c(SCc3ccc(C(=O)N4CCCCCC4)cc3)nc3ccncc32)cc1`, the AC50 under setting [1] is 15.8 µM [falling, partial curve].

Turning to `C=CCSc1nc2ccccc2n1Cc1nnc(-c2cccs2)o1`, the AC50 under setting [1] is 0.1 µM [falling, full curve].

For the compound `COc1ccc(-c2noc(CSc3nnc(C)n3-c3ccc(OC)cc3)n2)cc1`, the AC50 under setting [1] was 39.8 µM [falling, single point].

For the compound `CCOC(=O)Nc1ccc2c(c1)N(C(=O)CCN(C)C)c1ccccc1S2`, under setting [1], the AC50 is 31.6 µM [falling, single point].

As for `COC(=O)c1c(-c2cccs2)csc1NC(=O)COc1c(C)ccc(C)c1C`, the AC50 under setting [1] was 39.8 µM [falling, single point].

On to `CCCCCSc1nc2sc3c(c2c(=O)n1-c1ccccc1)CCN(C(C)=O)C3`, for which the AC50 under setting [1] was 39.8 µM [falling, single point].

For `CCc1cccc(NC(=O)c2cc3c(=O)n(Cc4ccc(OC)cc4)ccc3nc2C)c1`, under setting [1], the AC50 is 12.6 µM [falling, partial curve].

On to `CCOC(=O)c1ccccc1NC(=O)c1ccc2c(=O)n3c(nc2c1)CCCCC3`, for which, under setting [1], the AC50 was 6.31 µM [rising, single point] [measured here: IkB-luc green channel].

As for `CCCSc1nnc2c(n1)OC(c1sccc1C)Nc1ccccc1-2` (centres undefined), the AC50 under setting [1] was 0.2 µM [rising, full curve].

Consider `Cc1ccc(N2C(=O)N(CC(=O)C(C)(C)C)c3ccccc3S2(=O)=O)cc1C`, for which, under setting [1], the AC50 is 0.0158 µM [rising, full curve, poor fit].

With `CCOc1ccc(CCNC(=O)c2ccc(Nc3nc4ccccc4n4nnnc34)cc2)cc1OCC`, the AC50 under setting [1] is 2.51 µM [falling, full curve].

For the compound `O=C(CSc1nccc2ccccc12)N1CCN(c2ccccn2)CC1`, the half-maximal activity concentration (AC50) under setting [1] is 20 µM [falling, partial curve].

Take `O=C(Cc1cc(=O)[nH]c(=O)[nH]1)N1CCN(C(=O)c2ccco2)CC1`: under setting [1], the AC50 is 0.501 µM [falling, full curve].

On to `Cc1cc2oc(C(=O)N(Cc3ccccc3F)C3CCS(=O)(=O)C3)c(C)c2cc1Cl` (centres undefined), for which the AC50 under setting [1] is 31.6 µM [falling, single point].

On to `Cc1ccc(OC[C@H](O)[C@H](C)NC(C)C)c2c1CCC2`, for which the AC50 under setting [1] was 39.8 µM [falling, partial curve, poor fit].

As for `Cc1ccc(C2CC(=O)Nc3cc4c(cc32)OCCO4)cc1` (centres undefined), under setting [1], the AC50 was 15.8 µM [falling, single point].

Consider `CC1Cc2ccccc2N1C(=O)COc1cccc(-n2cnnn2)c1` (centres undefined), for which the AC50 under setting [1] was 39.8 µM [falling, single point].

With `CCOc1ccc(C(=O)c2oc3ccccc3c2NC(=O)Cc2coc3cc(C)cc(C)c23)cc1`, the AC50 under setting [1] is 3.98 µM [rising, single point].

With `COc1ccccc1-c1cc(C(=O)Nc2ccc(F)cc2F)no1`, under setting [1], the half-maximal activity concentration (AC50) was 3.16e-05 µM [falling, full curve].

Regarding `CCOc1ccccc1N1CCN(C(=O)c2cccc(-c3ccc(O)cc3)c2)CC1`, the AC50 under setting [1] is 20 µM [falling, partial curve].

For `CCCCOC(=O)c1ccc(NC(=O)Cn2nnc3sc4c(c3c2=O)CCCC4)cc1`, the AC50 under setting [1] is 39.8 µM [falling, single point].

For `CC[C@@H](C)[C@H](NC(=O)OC(C)(C)C)c1nnc(S(=O)(=O)Cc2cc(C)ccc2C)o1`, the AC50 runs as follows: (measured here: IkB-luc green channel) 6.31 µM [rising, single point]; (measured here: control luc red channel) 10 µM [falling, partial curve].

As to `CCC(=O)N1CCc2cc(S(=O)(=O)CCC(=O)NCc3ccc(C)cc3)ccc21`, the AC50 under setting [1] is 39.8 µM [rising, single point].

On to `CCc1nc2oc3ccccc3c(=O)c2c(=O)n1-c1ccccc1`, for which, under setting [1], the AC50 was 0.0501 µM [falling, full curve].

In the case of `CCc1cccc(NC(=O)C(Cc2ccccc2)NS(=O)(=O)c2ccc3c(c2)oc(=O)n3C)c1` (centres undefined), the AC50 under setting [1] is 25.1 µM [falling, partial curve].

In the case of `Cc1ccc(C2=CC(c3ccccc3F)n3c(nc4ccccc43)N2)cc1C` (centres undefined), the AC50 under setting [1] is 0.1 µM [falling, full curve].

`Nc1ccccc1NC1=CC(=O)CC(c2ccco2)C1` (centres undefined): the AC50 under setting [1] was 10 µM [falling, partial curve].

As for `CN(C)c1ccc(-n2c(CCC(=O)O)ccc2-c2ccccc2)cc1`, the AC50 under setting [1] is 25.1 µM [falling, partial curve].

In the case of `COc1ccc(C2=NC(c3ccncc3)=Nc3ccc(Br)cc3N2)cc1`, the AC50 under setting [1] is 31.6 µM [falling, single point].

Consider `CCOC(=O)C1=C(CN2CCCCC2)NC(=O)NC1c1cc(C)ccc1C` (centres undefined), for which, under setting [1], the AC50 was 3.16 µM [falling, partial curve].

Regarding `CC(C)(C)c1ccc(OCCn2cc(C(=O)c3ccco3)c3ccccc32)cc1`, the AC50 under setting [1] was 2 µM [falling, full curve].

On to `COc1ccccc1N1CCN(C(CNC(=O)C(=O)NCc2ccc(C)cc2)c2cccnc2)CC1` (centres undefined), for which the AC50 under setting [1] was 39.8 µM [falling, single point].

Take `CCOC(=O)c1ccc(NS(=O)C23CC4CC(CC(C4)C2)C3)cc1` (centres undefined): the AC50 under setting [1] was 25.1 µM [falling, partial curve].

For the compound `CCc1cccc(NC(=O)C2CCCN(S(=O)(=O)c3cccs3)C2)c1` (centres undefined), under setting [1], the AC50 is 39.8 µM [falling, single point].

Turning to `Cc1cccc(-n2ccnc2SCC(=O)Nc2ccc3c(c2)OCCO3)c1`, the AC50 under setting [1] was 10 µM [falling, partial curve].

As for `CCc1ccc(N2C(=O)CSC23C(=O)N(Cc2ccc(C)cc2)c2ccccc23)cc1` (centres undefined), the AC50 under setting [1] was 15.8 µM [falling, partial curve].

On to `COc1ccc(S(=O)(=O)c2c(C)c(NS(=O)(=O)c3ccccc3)cc(C)c2O)cc1`, for which the AC50 under setting [1] is 12.6 µM [falling, partial curve].

Turning to `COc1ccc(Cn2cc(C(=O)c3ccc(C)cc3)c(=O)c3cc(OC)c(OC)cc32)cc1`, the AC50 under setting [1] is 15.8 µM [falling, partial curve].

Regarding `CN(C)c1ccc(C(=C2C=CC(=[N+](C)C)C=C2)c2c(O)c(S(=O)(=O)O)cc3cc(S(=O)(=O)O)ccc23)cc1`, the AC50 under setting [1] is 3.98 µM [falling, partial curve].

As to `COc1cc(C(c2c(C)[nH][nH]c2=O)c2c(C)[nH][nH]c2=O)ccc1OC(=O)c1cccc(C)c1`, the AC50 under setting [1] was 31.6 µM [falling, single point].

On to `O=C(c1ccc2c(c1)CCCC2)N1CCN(c2nc3c(F)cccc3s2)CC1`, for which, under setting [1], the AC50 is 0.0631 µM [rising, full curve, poor fit].

Regarding `CCCCOc1ccc(CN2C(=O)C(=O)c3cc(Br)cc(C)c32)cc1OC`, under setting [1], the AC50 was 5.01 µM [rising, partial curve].

In the case of `Cc1ccc(CN2CCc3nc(N4CCN(c5ccccc5F)CC4)ncc3C2)cc1C`, the AC50 under setting [1] was 0.00501 µM [falling, full curve].

For `OC(COc1c(F)cc(Br)cc1F)CN1CCN(c2ccc(F)cc2)CC1` (centres undefined), under setting [1], the AC50 is 15.8 µM [falling, partial curve].

For the compound `O=C(NCc1ccccc1Cl)C1CCCN(C(=O)c2cnn(-c3ccccc3)c2-n2cccc2)C1` (centres undefined), the AC50 under setting [1] was 15.8 µM [falling, single point].

Regarding `Cc1nc2c(C(=O)NCCc3ccc(Cl)cc3)c[nH]n2c(=O)c1Cc1ccc(Cl)cc1`, the AC50 under setting [1] was 7.94 µM [falling, full curve].

`COc1ccccc1C(=O)Nc1c(C(=O)N(C)Cc2ccccc2)sc2nc(C)c(Cl)c(C)c12`: the AC50 under setting [1] was 15.8 µM [falling, partial curve].

As for `Cc1cccc(-c2nc3c(c(SCc4ccccc4Cl)n2)Cc2c(CO)cnc(C)c2O3)c1`, the AC50 under setting [1] was 39.8 µM [rising, partial curve, poor fit].

In the case of `CCc1ccc(S(=O)(=O)NCc2csc(-c3ccccc3)n2)s1`, the AC50 under setting [1] is 25.1 µM [falling, partial curve].

On to `CCCc1cc(=O)n2c(nc3ccccc32)[nH]1`, for which the AC50 under setting [1] is 10 µM [falling, partial curve].

In the case of `CNC(=O)CN1C(=O)c2cccnc2Sc2ccccc21`, under setting [1], the half-maximal activity concentration (AC50) is 3.16 µM [falling, single point].

One may read the AC50 as the midpoint of the concentration-response curve, whichever way the signal moves.

The values above are taken from PubChem BioAssay AID445 (National Center for Advancing Translational Sciences (NCATS), 2006).
